Measured values published in publication doi:10.1101/2025.05.21.655431 (bioRxiv, 2025).
These are yes or no findings as the source states them, for the method shown. For some of these results: Binding seen in cells or lysates may run through a third protein. Some results given as binding are weak or reduced against the parent protein; the word gives no strength. For some of these results: Where a sequence is shown, tags or fusion partners need not be part of it. Blank lines part the entries; values can stand above or below the molecule they belong to.

The chains behind the UniProt entries cited, without tags or fusion partners.
UniProt Q9FGZ4: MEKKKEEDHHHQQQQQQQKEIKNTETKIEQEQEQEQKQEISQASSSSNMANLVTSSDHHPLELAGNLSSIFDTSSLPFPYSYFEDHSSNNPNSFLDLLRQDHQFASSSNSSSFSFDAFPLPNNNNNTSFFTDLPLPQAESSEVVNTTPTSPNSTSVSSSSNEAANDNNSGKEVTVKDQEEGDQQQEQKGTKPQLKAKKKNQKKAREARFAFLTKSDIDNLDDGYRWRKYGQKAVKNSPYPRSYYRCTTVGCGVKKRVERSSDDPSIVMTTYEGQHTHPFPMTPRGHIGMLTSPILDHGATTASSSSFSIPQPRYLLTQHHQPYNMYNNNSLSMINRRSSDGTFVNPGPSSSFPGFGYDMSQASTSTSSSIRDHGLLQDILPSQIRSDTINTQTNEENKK

How the values were obtained:
[1] = target: T1, MPK3 (endogenous, Arabidopsis) (Arabidopsis thaliana (endogenous in Arabidopsis leaves)) (UniProt Q39023); assay: co-IP
T1 sequence: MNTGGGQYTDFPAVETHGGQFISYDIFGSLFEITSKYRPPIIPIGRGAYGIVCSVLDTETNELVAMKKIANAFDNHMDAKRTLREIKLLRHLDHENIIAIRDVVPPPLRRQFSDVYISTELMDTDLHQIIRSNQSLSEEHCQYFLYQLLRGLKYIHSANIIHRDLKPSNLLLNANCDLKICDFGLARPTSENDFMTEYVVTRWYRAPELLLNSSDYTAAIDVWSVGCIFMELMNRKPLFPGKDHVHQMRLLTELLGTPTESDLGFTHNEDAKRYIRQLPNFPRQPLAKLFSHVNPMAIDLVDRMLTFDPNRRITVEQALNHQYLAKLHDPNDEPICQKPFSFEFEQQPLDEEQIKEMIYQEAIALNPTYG

[2] = target: T2, MPK3-nEYFP (BiFC fusion) (Arabidopsis thaliana) (UniProt Q39023); assay: split reporter
T2 sequence: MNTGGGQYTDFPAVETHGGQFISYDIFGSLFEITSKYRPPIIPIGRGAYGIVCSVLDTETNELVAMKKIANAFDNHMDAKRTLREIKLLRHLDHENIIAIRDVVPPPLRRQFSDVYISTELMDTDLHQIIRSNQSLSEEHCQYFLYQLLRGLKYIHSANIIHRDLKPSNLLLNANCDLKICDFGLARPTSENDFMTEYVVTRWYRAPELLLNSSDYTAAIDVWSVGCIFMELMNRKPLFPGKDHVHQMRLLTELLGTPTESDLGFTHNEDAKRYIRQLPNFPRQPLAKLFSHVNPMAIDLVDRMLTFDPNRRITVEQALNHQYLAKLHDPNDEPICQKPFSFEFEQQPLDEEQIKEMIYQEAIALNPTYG

[3] = target: T3, MPK3-nluc (split luciferase fusion, pCAMBIA1300-nluc-MPK3) (Arabidopsis thaliana) (UniProt Q39023); assay: split reporter
T3 sequence: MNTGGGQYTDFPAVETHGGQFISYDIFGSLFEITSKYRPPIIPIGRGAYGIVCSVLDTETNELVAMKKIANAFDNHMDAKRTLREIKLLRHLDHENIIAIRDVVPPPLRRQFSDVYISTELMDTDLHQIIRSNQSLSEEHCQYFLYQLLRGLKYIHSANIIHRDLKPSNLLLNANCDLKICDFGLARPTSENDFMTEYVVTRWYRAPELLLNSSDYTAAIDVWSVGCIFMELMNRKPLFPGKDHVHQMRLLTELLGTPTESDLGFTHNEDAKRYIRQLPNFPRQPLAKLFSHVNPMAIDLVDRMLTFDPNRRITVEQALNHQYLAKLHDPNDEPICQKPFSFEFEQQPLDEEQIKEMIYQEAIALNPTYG

[4] = target: WRKY48 (pGBKT7-WRKY48, yeast two-hybrid bait) (Arabidopsis thaliana) (UniProt Q9FGZ4); assay: two-hybrid

- binding [1]: binds
Molecule: WRKY48-GFP (35S::WRKY48-GFP) (from UniProt Q9FGZ4 1-399)

- binding [2]: binds
Molecule: WRKY48-cEYFP (BiFC fusion) (from UniProt Q9FGZ4 1-399)

- binding [3]: binds
Molecule: WRKY48-cluc (split luciferase fusion, pCAMBIA1300-cluc-WRKY48) (from UniProt Q9FGZ4 1-399)

- binding [4]: binds
B1: GST-MPK3 (recombinant) (enzyme, Arabidopsis thaliana, UniProt Q39023 1-370, looked up)
chain: MNTGGGQYTDFPAVETHGGQFISYDIFGSLFEITSKYRPPIIPIGRGAYGIVCSVLDTETNELVAMKKIANAFDNHMDAKRTLREIKLLRHLDHENIIAIRDVVPPPLRRQFSDVYISTELMDTDLHQIIRSNQSLSEEHCQYFLYQLLRGLKYIHSANIIHRDLKPSNLLLNANCDLKICDFGLARPTSENDFMTEYVVTRWYRAPELLLNSSDYTAAIDVWSVGCIFMELMNRKPLFPGKDHVHQMRLLTELLGTPTESDLGFTHNEDAKRYIRQLPNFPRQPLAKLFSHVNPMAIDLVDRMLTFDPNRRITVEQALNHQYLAKLHDPNDEPICQKPFSFEFEQQPLDEEQIKEMIYQEAIALNPTYG
